Experimental findings from the supplement of paper PMC12823440, “Inhibitors supercharge kinase turnover through native proteolytic circuits” (Nature, 2025) are described below.

Chains of the proteins cited; added tags and fusions are not shown. Lines headed by an entry give the natural chain unless they say otherwise; changes in a name come on top.
UniProt P07948: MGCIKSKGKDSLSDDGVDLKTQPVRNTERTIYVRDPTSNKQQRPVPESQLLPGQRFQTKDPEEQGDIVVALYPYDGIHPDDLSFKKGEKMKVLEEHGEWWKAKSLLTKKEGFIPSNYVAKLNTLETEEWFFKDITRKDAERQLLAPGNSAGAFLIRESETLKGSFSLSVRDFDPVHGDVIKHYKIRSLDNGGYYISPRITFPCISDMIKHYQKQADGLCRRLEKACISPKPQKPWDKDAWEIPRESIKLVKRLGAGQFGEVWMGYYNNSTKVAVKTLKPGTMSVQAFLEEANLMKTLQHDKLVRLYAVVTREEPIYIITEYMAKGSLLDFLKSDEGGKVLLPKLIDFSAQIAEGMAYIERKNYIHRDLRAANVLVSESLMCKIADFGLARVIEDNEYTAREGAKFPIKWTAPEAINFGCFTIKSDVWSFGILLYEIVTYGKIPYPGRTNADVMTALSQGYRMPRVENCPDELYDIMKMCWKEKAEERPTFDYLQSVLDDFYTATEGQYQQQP

Structures can show the parent of a compound that is named as a salt. The list shows a part of the results. Hit calls seldom repeat between salt and free forms of one compound.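 Kinases were expressed as nanoluciferase fusions in K562 cells and luminescence was read every 4 h between 2 and 18 h as percent of control, DMSO set to 100% and a positive control to 0%. A time point counts as decreased when the signal drops significantly (2 sigma). The hit call is the authors' own, does not follow from the count of time points alone, and its rule is not shown.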

One experiment addresses LYN (UniProt P07948). The experiment in a line: number of time points (of 5) at which kinase-Nluc abundance scored as decreased, DMSO-normalised (count); higher = more persistent destabilization. Particulars: K562; 2-18 h.
Consider `CCc1c[nH]c2ncnc(N3CC[C@](N)(CNC(=O)c4ccc(F)cc4F)C3)c12` (10 µM), for which the “number of time points” value worked out at 0.
As to `Nc1ncnc2c1nc(Br)n2[C@@H]1O[C@@H]2COP(=O)(O)O[C@H]2[C@H]1O` [8-Bromo-cAMP sodium salt] (10 µM), the “number of time points” value was 0.
On the same count and under the same terms, the same measure for `CC(C)n1c(=O)n(C)c2cnc3cc(F)c(-c4ccc(OCCCN5CCCCC5)nc4)cc3c21` (10 µM): 0; for `Cc1ccc(C)c(OCCn2cc(C(=O)O)c3ccccc32)c1` (10 µM): 0.
On the same count and under the same terms, the same measure for `COCCOc1ccc2c(c1)ncn2-c1ccc2cccc(N3CCC(N)CC3)c2n1` (10 µM): 0; for `CC(C)=CCC/C(C)=C/CC/C(C)=C/C=C/C(C)=C/C(=O)O` [Peretinoin] (10 µM): 0.
Same read-out and setting: the result for `C=CC(=O)N1CC[C@@H](Oc2nc(Nc3ccc(N4CCC(N5CCN(C)CC5)CC4)cc3)c(C(N)=O)nc2CC)C1` [Naquotinib (mesylate)] (2.5 µM) reads 0; that for `CC(Sc1nc2c(cnn2-c2cccc(Cl)c2)c(=O)[nH]1)C(N)=O` (stereo not drawn) (10 µM), 0; that for `Cc1cc(O)c2c(c1)C(=O)c1cccc(O)c1C2=O` [Chrysophanol] (2 µM), 0.
For the compound `O=C1OC(/C=C/c2ccccc2)=NC/1=C\c1cccnc1` (10 µM), the “number of time points” value is 0.

The target in the next experiment is MAP2K1 (UniProt Q02750). The experiment is described as above. Particulars: K562; 2-18 h.
In the case of `CN1CCN(c2cc(-c3ccncc3)c(-c3ccc4ccccc4c3)nn2)CC1` (10 µM), the “number of time points” value is 0.
Turning to `CC(O)(C#Cc1ccc2c(c1)N(c1nc(N)ncc1Cl)CC2)c1nccs1` (stereo not drawn) (2.5 µM), the “number of time points” value amounted to 0.
Still for that read-out and setting: the result for `COc1ccc(Nc2ncc(C(F)(F)F)c(NC3CC3)n2)cc1OC` (10 µM) reads 0; that for `O=c1cc(N2CCOCC2)oc2c(-c3ccc4c(c3)OCCO4)csc12` (2.5 µM), 0; that for `N[C@@H]1CCCN(c2c(/C=C3\SC(=O)NC3=O)cccc2-c2ccccc2)C1` (10 µM), 0.
Same read-out and setting: the same measure for `N#Cc1ccc(-c2cnc3[nH]cc(NC(=O)c4cccnc4)c3c2)cc1` (10 µM): 0.
Still for that read-out and setting: the same measure for `COc1ccc(Br)cc1NC(=O)Nc1cccc2c1ccn2Cc1ccnc(N)c1` (2.5 µM): 0.
With `COc1cc(N2CCOCC2)ccc1Nc1ncc(F)c(Nc2ccccc2NS(C)(=O)=O)n1` (10 µM), the “number of time points” value amounted to 0.
Still for that read-out and setting: the same measure for `COc1ccc(-c2cc(=O)c3c(OC)cc(OC)c(OC)c3o2)cc1` [6-Demethoxytangeretin] (10 µM): 0; for `COc1cc2c(cc1O)C[C@H]1c3cc(O)c(OC)cc3CC[N@@+]1(C)C2` [Phellodendrine] (10 µM): 0.
Regarding `CO[C@H]1C[C@@H]2CC[C@@H](C)[C@@](O)(O2)C(=O)C(=O)N2CCCC[C@H]2C(=O)O[C@H]([C@H](C)C[C@@H]2CC[C@@H](OC(=O)C(C)(CO)CO)[C@H](OC)C2)CC(=O)[C@H](C)/C=C(\C)[C@@H](O)[C@@H](OC)C(=O)[C@H](C)C[C@H](C)/C=C/C=C/C=C/1C` [Temsirolimus] (2.5 µM), the “number of time points” value is 0.
With `O=C(ON=C1c2ccccc2-c2nc3ccccc3nc21)c1ccco1` (2.5 µM), the “number of time points” value amounted to 0.
On to `COc1ccc(S(=O)(=O)Nc2cc(-c3c(O)ccc4ccccc34)c(O)c3ccccc23)cc1` (10 µM), for which the “number of time points” value turned out to be 0.
On the same count and under the same terms, the result for `Cc1cccc(COc2cccc(/C=C3\C(=O)NN(c4ccccc4)C3=O)c2)c1` (10 µM) reads 0; that for `CC(C)Oc1ccc(F)c(-c2cnc(N)c(C(=O)Nc3cnccc3N3CCC[C@@H](C(=O)O)C3)n2)c1` (2 µM), 0.
Consider `COc1cc(F)ccc1-c1ncnc(Nc2cccc(C[S@](C)(=N)=O)c2)n1` [Atuveciclib] (2.5 µM), for which the “number of time points” value worked out at 0.
Same read-out and setting: the result for `CC(C)n1ncnc1-c1cn2c(n1)-c1ccc(O[C@@H](C)C(N)=O)cc1OCC2` (10 µM) reads 0; that for `Cn1c(CNc2cccc(C(=O)NCc3ccccc3C(F)(F)F)c2)nnc1-c1ccncc1` (10 µM), 0.
For `O=Nc1c(-c2c(O)[nH]c3cc(Br)ccc23)[nH]c2ccccc12` [GSK 3 Inhibitor IX] (2.5 µM), the “number of time points” value turned out to be 0.
Still for that read-out and setting: the same measure for `Nc1ncc(C(=O)NC2CN(C(=O)C3CC3)C2)c2ccc(-c3cccc(F)c3)nc12` (2 µM): 0.
As to `O=C(Nc1cc(Cl)cc2c1[nH]c1cnccc12)c1cccnc1` (10 µM), the “number of time points” value is 0.
`c1ccc(Cn2c(-c3ccc(OC[C@H](C4CCNCC4)n4c(-c5ccccc5)nc5ccccc54)cc3)nc3ccccc32)cc1` [Deltarasin] (2.5 µM): the “number of time points” value was 0.
Same read-out and setting: the result for `COc1cc2ncnc(Nc3cccc(I)c3)c2cc1OC` (2.5 µM) reads 0; that for `Clc1ccc(C(c2ccc(Cl)cc2)[n+]2ccn(CC(OCc3ccc(Cl)cc3Cl)c3ccc(Cl)cc3Cl)c2)cc1` (stereo not drawn) [Calmidazolium chloride] (2.5 µM), 0.
On the same count and under the same terms, the result for `O=C(Nc1cccnc1)c1cc(-c2ccnc(F)c2)ccc1OCc1ccccc1` (10 µM) reads 0; that for `c1nn(C2CCOCC2)cc1Nc1ncc2nnn(-c3ccc4cn[nH]c4c3)c2n1` (10 µM), 0; that for `COC(=O)[C@H](CCSC)NC(=O)c1ccc(NC[C@@H](N)CS)cc1-c1ccccc1` [FTI-277 (hydrochloride)] (10 µM), 0.
Consider `Cc1cc(Nc2cc(N)ncn2)c(=O)n2c1C(=O)NC21CCCCC1` [Tomivosertib] (10 µM), for which the “number of time points” value turned out to be 0.
Consider `CCc1c[nH]c2ncnc(N3CC[C@](N)(CNC(=O)c4ccc(F)cc4F)C3)c12` (10 µM), for which the “number of time points” value was determined as 0.
Still for that read-out and setting: the same measure for `Nc1ncnc2c1nc(Br)n2[C@@H]1O[C@@H]2COP(=O)(O)O[C@H]2[C@H]1O` [8-Bromo-cAMP sodium salt] (10 µM): 0; for `CC(C)n1c(=O)n(C)c2cnc3cc(F)c(-c4ccc(OCCCN5CCCCC5)nc4)cc3c21` (10 µM): 0; for `Cc1ccc(C)c(OCCn2cc(C(=O)O)c3ccccc32)c1` (10 µM): 0.
The same measure, in the same setting: the result for `COCCOc1ccc2c(c1)ncn2-c1ccc2cccc(N3CCC(N)CC3)c2n1` (10 µM) reads 0; that for `CC(C)=CCC/C(C)=C/CC/C(C)=C/C=C/C(C)=C/C(=O)O` [Peretinoin] (10 µM), 0.
Still for that read-out and setting: the same measure for `C=CC(=O)N1CC[C@@H](Oc2nc(Nc3ccc(N4CCC(N5CCN(C)CC5)CC4)cc3)c(C(N)=O)nc2CC)C1` [Naquotinib (mesylate)] (2.5 µM): 0.
Take `CC(Sc1nc2c(cnn2-c2cccc(Cl)c2)c(=O)[nH]1)C(N)=O` (stereo not drawn) (10 µM): the “number of time points” value was determined as 0.
On the same count and under the same terms, the same measure for `Cc1cc(O)c2c(c1)C(=O)c1cccc(O)c1C2=O` [Chrysophanol] (2 µM): 0; for `O=C1OC(/C=C/c2ccccc2)=NC/1=C\c1cccnc1` (10 µM): 0.
